Where a name gives a salt, the structure may show the parent alone. Some of the results follow. Hit calls seldom repeat between salt and free forms of one compound.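 Kinases, fused to nanoluciferase, were expressed in K562 cells; luminescence was measured every 4 h from 2 to 18 h as percent of control (DMSO = 100%, positive control = 0%). A time point is decreased if signal falls significantly (2 sigma). Hits were called by the authors by a rule that is not shown; the count of time points alone does not decide it.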
Experiments:
Assay in all cases: kinase-Nluc reporter destabilization hit call (1 = scored as downregulated) (binary); higher = compound decreases kinase abundance
Settings in all cases: K562; 2-18 h
ERN1 = ERN1 (UniProt O75460)
FGFR1 = FGFR1 (UniProt P11362)
FGFR2 = FGFR2 (UniProt P21802)
FGFR3 = FGFR3 (UniProt P22607)
FGR = FGR (UniProt P09769)
FLT3 = FLT3 (UniProt P36888)
FYN = FYN (UniProt P06241)
GSK3A = GSK3A (UniProt P49840)
HER2 = HER2 (UniProt P04626)
INSRR = INSRR (UniProt P14616)

Chains of the proteins cited; added tags and fusions are not shown. Lines headed by an entry give the natural chain unless they say otherwise; changes in a name come on top.
UniProt O75460: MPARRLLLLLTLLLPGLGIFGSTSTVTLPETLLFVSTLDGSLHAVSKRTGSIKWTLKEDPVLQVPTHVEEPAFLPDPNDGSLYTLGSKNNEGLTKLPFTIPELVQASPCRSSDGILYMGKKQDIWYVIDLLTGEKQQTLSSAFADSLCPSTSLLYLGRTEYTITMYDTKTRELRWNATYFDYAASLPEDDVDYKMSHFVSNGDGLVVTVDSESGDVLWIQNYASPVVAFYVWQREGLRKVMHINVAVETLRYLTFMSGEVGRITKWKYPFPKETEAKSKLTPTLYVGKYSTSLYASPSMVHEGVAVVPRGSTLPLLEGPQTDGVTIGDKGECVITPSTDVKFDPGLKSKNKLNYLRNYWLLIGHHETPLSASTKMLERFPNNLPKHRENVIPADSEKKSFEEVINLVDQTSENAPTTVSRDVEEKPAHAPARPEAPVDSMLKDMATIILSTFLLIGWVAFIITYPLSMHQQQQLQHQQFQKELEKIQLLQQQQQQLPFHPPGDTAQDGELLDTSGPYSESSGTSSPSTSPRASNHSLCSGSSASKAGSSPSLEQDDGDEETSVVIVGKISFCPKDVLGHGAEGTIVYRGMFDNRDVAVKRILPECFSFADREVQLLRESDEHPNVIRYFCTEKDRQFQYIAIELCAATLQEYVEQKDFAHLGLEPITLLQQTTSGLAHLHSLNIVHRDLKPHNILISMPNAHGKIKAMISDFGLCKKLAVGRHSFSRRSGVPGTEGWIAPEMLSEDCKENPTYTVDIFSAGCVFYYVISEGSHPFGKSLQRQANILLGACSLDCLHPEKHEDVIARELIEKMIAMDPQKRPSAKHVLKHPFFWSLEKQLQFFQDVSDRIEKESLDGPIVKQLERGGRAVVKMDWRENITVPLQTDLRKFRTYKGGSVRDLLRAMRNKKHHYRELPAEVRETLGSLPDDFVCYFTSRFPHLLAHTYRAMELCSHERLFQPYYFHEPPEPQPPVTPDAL
UniProt P21802, whole entry, looked up: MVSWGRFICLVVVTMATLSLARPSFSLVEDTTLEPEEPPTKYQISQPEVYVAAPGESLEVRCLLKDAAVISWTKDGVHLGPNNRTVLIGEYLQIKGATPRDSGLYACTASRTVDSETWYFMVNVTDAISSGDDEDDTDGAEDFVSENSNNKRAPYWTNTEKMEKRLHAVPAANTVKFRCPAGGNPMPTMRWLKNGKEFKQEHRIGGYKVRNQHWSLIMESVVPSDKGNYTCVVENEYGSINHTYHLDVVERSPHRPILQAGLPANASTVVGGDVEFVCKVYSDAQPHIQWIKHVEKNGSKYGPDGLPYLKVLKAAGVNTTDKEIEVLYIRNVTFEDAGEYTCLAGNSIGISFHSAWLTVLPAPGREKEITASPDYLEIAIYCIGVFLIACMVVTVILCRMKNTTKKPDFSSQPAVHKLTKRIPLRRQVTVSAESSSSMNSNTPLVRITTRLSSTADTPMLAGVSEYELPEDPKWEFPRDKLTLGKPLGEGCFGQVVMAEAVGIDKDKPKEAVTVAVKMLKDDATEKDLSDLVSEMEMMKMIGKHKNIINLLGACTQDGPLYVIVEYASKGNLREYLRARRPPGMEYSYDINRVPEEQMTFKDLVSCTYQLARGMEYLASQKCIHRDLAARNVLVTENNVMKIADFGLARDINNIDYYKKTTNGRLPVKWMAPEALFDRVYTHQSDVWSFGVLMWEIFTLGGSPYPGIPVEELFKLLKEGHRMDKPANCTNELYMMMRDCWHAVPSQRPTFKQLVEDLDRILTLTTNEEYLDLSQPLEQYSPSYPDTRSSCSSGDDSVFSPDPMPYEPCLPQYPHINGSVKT
UniProt P22607, whole entry, looked up: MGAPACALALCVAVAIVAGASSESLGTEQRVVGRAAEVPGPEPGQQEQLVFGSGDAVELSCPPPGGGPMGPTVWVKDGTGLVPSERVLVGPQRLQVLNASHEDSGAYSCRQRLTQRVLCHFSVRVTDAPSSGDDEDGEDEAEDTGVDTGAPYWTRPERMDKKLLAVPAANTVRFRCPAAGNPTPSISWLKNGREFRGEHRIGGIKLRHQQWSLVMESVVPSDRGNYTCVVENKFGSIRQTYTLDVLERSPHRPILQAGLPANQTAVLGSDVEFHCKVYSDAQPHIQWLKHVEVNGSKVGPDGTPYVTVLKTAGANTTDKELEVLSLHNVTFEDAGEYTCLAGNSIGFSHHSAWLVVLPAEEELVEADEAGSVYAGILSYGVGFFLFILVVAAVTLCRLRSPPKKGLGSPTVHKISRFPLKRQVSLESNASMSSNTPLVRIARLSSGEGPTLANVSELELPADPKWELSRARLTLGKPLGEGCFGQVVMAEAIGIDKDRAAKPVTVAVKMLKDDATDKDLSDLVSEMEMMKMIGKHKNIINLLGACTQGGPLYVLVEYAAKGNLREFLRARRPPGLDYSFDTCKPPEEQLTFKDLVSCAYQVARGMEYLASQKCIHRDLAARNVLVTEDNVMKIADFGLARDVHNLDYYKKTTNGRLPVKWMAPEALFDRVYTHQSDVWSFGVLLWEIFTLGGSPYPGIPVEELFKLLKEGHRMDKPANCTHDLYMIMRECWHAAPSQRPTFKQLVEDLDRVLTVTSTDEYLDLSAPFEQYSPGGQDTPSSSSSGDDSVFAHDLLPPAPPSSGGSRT
UniProt P36888, whole entry: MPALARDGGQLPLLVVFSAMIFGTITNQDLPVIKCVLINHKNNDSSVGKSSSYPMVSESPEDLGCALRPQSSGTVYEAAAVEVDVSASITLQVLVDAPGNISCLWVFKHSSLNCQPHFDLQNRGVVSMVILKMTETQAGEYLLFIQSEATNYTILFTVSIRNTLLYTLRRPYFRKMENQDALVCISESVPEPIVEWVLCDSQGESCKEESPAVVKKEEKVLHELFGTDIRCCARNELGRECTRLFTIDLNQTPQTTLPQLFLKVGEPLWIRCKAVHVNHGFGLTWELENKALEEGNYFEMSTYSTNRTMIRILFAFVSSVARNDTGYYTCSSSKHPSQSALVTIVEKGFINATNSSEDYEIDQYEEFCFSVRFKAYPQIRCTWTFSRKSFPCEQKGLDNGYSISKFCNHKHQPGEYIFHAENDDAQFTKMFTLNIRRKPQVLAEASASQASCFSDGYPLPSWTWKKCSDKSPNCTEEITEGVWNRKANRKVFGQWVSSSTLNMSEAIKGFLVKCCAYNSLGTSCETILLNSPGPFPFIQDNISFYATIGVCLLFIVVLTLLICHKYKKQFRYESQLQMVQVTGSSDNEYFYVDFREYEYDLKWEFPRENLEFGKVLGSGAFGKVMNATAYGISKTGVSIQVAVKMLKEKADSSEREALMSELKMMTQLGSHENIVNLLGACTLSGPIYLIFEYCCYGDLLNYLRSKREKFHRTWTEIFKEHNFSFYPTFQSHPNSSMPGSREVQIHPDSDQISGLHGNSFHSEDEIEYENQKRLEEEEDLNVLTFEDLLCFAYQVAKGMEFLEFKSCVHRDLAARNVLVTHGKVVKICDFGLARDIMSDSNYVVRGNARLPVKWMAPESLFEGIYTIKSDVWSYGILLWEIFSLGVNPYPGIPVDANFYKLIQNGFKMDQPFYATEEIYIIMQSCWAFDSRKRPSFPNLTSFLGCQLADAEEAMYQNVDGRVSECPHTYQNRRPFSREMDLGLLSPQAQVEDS
UniProt P06241, whole entry, looked up: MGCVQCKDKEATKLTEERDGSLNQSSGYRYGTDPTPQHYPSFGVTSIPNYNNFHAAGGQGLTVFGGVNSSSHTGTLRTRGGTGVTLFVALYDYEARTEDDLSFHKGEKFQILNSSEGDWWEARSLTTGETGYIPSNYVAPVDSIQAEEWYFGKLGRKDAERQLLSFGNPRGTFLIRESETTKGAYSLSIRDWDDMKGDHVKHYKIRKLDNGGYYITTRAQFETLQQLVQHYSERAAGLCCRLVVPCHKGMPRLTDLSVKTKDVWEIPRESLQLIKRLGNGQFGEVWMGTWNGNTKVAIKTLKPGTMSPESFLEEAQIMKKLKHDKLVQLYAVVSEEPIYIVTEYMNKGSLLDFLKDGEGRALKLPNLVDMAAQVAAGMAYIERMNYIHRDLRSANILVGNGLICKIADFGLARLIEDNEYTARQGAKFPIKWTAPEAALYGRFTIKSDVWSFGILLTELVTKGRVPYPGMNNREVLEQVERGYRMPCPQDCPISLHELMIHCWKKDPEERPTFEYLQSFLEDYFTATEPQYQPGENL
UniProt P49840: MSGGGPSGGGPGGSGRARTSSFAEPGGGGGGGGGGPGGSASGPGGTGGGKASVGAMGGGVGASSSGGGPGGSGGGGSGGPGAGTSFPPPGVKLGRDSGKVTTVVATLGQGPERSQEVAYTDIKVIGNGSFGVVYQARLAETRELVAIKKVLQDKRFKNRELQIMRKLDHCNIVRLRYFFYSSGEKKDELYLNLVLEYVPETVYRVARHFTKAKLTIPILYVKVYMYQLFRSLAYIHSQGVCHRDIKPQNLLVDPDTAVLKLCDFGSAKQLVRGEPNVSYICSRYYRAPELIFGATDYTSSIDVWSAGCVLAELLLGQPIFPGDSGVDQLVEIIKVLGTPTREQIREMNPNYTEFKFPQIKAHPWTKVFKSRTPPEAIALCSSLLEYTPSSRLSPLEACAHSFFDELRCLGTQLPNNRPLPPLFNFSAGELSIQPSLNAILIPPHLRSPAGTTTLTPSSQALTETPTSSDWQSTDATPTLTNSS
UniProt P14616: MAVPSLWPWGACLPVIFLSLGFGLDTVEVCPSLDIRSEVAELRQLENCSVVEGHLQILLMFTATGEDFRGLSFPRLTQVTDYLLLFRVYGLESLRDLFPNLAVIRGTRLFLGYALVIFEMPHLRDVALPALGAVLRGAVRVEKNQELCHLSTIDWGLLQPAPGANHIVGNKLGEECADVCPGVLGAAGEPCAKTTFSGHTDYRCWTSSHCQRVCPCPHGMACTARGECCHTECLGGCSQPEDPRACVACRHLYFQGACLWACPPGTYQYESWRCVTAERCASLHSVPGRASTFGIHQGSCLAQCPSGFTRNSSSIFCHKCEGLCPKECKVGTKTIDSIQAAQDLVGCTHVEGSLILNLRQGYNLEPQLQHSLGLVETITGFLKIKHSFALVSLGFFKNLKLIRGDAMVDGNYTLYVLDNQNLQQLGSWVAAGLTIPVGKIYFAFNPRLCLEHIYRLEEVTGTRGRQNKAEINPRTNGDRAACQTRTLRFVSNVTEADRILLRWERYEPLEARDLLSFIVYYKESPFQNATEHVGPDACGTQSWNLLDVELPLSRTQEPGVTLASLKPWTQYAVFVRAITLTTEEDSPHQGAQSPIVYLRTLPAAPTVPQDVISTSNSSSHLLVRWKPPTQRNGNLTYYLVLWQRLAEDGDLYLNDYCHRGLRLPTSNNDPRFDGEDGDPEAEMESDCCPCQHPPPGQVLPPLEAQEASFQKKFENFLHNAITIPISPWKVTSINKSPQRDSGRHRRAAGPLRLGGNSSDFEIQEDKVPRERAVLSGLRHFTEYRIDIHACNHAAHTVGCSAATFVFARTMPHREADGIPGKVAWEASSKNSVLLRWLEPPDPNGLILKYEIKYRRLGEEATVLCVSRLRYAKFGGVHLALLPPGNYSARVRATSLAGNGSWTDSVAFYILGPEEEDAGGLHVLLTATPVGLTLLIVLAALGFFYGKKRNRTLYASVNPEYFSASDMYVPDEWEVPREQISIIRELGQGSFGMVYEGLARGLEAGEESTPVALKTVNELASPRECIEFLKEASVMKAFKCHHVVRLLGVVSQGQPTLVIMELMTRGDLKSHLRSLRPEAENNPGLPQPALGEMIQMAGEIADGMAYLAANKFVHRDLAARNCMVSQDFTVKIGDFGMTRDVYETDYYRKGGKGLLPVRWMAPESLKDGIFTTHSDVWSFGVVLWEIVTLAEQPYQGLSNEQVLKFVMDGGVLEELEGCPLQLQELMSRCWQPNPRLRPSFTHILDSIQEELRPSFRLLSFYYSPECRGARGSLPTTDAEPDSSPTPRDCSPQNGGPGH

Measured: kinase-Nluc reporter destabilization hit call

C=CC(=O)Nc1ccc(CN(C(=O)Nc2c(Cl)c(OC)cc(OC)c2Cl)c2cc(Nc3ccc(N4CCN(C)CC4)cc3)ncn2)cc1 (10 µM)
inactive: ERN1 = 0 | FGFR1 = 0 | FGFR2 = 0 | FGFR3 = 0 | FGR 0 | FLT3 = 0 | FYN 0 | GSK3A 0 | HER2 = 0 | INSRR 0

CC(=O)c1c(C)c2cnc(Nc3ccc(N4CCN(CCCCNC(=O)COc5cccc6c5C(=O)N(C5CCC(=O)NC5=O)C6=O)CC4)cn3)nc2n(C2CCCC2)c1=O (stereo not given) (10 µM)
inactive: ERN1 = 0 | FGFR1 = 0 | FGFR2 = 0 | FGFR3 = 0 | FGR 0 | FLT3 = 0 | FYN 0 | GSK3A 0 | HER2 = 0 | INSRR 0

CC(C)(C)c1ccc(S(=O)(=O)Nc2ccc(-n3ccnc3)cc2)cc1 (10 µM)
inactive: ERN1 = 0 | FGFR1 = 0 | FGFR2 = 0 | FGFR3 = 0 | FGR 0 | FLT3 = 0 | FYN 0 | GSK3A 0 | HER2 = 0 | INSRR 0

CCN(CC)c1ccc2cc(C(=O)N3CCN(C(=O)C4=Cc5c(Br)cccc5S4(=O)=O)CC3)c(=O)oc2c1 (2 µM)
inactive: ERN1 = 0 | FGFR1 = 0 | FGFR2 = 0 | FGFR3 = 0 | FGR 0 | FLT3 = 0 | FYN 0 | GSK3A 0 | HER2 = 0 | INSRR 0

CC(C)CN(CC(=O)N1CCN(CC(OCc2ccc3ccccc3c2)c2ccc(Cl)cc2Cl)CC1)CC(C)C (stereo not given) [LYN-1604 (dihydrochloride)] (2.5 µM)
inactive: ERN1 = 0 | FGFR1 = 0 | FGFR2 = 0 | FGFR3 = 0 | FGR 0 | FLT3 = 0 | FYN 0 | GSK3A 0 | HER2 = 0 | INSRR 0

Cc1cc([C@H](C)Nc2ccccc2)c2oc(N3CCOCC3)cc(=O)c2c1 (10 µM)
inactive: ERN1 = 0 | FGFR1 = 0 | FGFR2 = 0 | FGFR3 = 0 | FGR 0 | FLT3 = 0 | FYN 0 | GSK3A 0 | HER2 = 0 | INSRR 0

O=C(Nc1cccnc1)c1cc(C(=O)c2c(F)cccc2Br)c[nH]1 (10 µM)
inactive: ERN1 = 0 | FGFR1 = 0 | FGFR2 = 0 | FGFR3 = 0 | FGR 0 | FLT3 = 0 | FYN 0 | GSK3A 0 | HER2 = 0 | INSRR 0

CC(C)=CC[C@H](O)C1=CC(=O)c2c(O)ccc(O)c2C1=O [(-)-Alkannin] (2.5 µM)
inactive: ERN1 = 0 | FGFR1 = 0 | FGFR2 = 0 | FGFR3 = 0 | FGR 0 | FLT3 = 0 | FYN 0 | GSK3A 0 | HER2 = 0 | INSRR 0

N#Cc1c(-c2ccccc2)cc(-c2cc(Br)ccc2O)[nH]c1=O (10 µM)
inactive: ERN1 = 0 | FGFR1 = 0 | FGFR2 = 0 | FGFR3 = 0 | FGR 0 | FLT3 = 0 | FYN 0 | GSK3A 0 | HER2 = 0 | INSRR 0

Cc1cc(Nc2cc(Cl)nc(Oc3ccc([N+](=O)[O-])cc3)n2)n[nH]1 [Autophinib] (2.5 µM)
inactive: ERN1 = 0 | FGFR1 = 0 | FGFR2 = 0 | FGFR3 = 0 | FGR 0 | FLT3 = 0 | FYN 0 | GSK3A 0 | HER2 = 0 | INSRR 0

COc1cc(C(N)=O)nc(-c2cccc(C#C[C@]3(O)CCN(C)C3=O)c2)c1 (10 µM)
inactive: ERN1 = 0 | FGFR1 = 0 | FGFR2 = 0 | FGFR3 = 0 | FGR 0 | FLT3 = 0 | FYN 0 | GSK3A 0 | HER2 = 0 | INSRR 0

2 neighbouring records from above, for reference:
Cc1cc(Nc2cc(Cl)nc(Oc3ccc([N+](=O)[O-])cc3)n2)n[nH]1 [Autophinib] (2.5 µM)
inactive: ERN1 = 0 | FGFR1 = 0 | FGFR2 = 0 | FGFR3 = 0 | FGR 0 | FLT3 = 0 | FYN 0 | GSK3A 0 | HER2 = 0 | INSRR 0

COc1cc(C(N)=O)nc(-c2cccc(C#C[C@]3(O)CCN(C)C3=O)c2)c1 (10 µM)
inactive: ERN1 = 0 | FGFR1 = 0 | FGFR2 = 0 | FGFR3 = 0 | FGR 0 | FLT3 = 0 | FYN 0 | GSK3A 0 | HER2 = 0 | INSRR 0

(next part)

CC(C)=CC(=O)CCC(=O)N1CCN(Cc2cc3nc(-c4cccc5[nH]ncc45)nc(N4CCOCC4)c3s2)CC1 (10 µM)
inactive: ERN1 = 0 | FGFR1 = 0 | FGFR2 = 0 | FGFR3 = 0 | FGR 0 | FLT3 = 0 | FYN 0 | GSK3A 0 | INSRR 0
active: HER2 = 1

Fc1ccc(-c2nc(-c3ccccc3F)[nH]c2-c2ccncc2)cc1 (2.5 µM)
inactive: ERN1 = 0 | FGFR1 = 0 | FGFR2 = 0 | FGFR3 = 0 | FGR 0 | FLT3 = 0 | FYN 0 | GSK3A 0 | HER2 = 0 | INSRR 0

C=C(C)C(=O)Nc1cccc(-c2ncnc3[nH]cc(C(=O)OCC)c23)c1 (10 µM)
inactive: ERN1 = 0 | FGFR1 = 0 | FGFR2 = 0 | FGFR3 = 0 | FGR 0 | FLT3 = 0 | FYN 0 | GSK3A 0 | HER2 = 0 | INSRR 0
